Results published in patent publication US20210047695A1.
No constants are given. Whether binding was seen depends on the method and setting. In cells and extracts the contact can be indirect. Some results given as binding are weak or reduced against the parent protein; the word gives no strength. Sequences can lack the tags named with a protein.

Columns and labels:
[1] = biological target: T1, SMC1A (UniProt Q14683); assay: anti-FLAG co-immunoprecipitation from HEK293 lysates, Western blot
T1 sequence (looked up): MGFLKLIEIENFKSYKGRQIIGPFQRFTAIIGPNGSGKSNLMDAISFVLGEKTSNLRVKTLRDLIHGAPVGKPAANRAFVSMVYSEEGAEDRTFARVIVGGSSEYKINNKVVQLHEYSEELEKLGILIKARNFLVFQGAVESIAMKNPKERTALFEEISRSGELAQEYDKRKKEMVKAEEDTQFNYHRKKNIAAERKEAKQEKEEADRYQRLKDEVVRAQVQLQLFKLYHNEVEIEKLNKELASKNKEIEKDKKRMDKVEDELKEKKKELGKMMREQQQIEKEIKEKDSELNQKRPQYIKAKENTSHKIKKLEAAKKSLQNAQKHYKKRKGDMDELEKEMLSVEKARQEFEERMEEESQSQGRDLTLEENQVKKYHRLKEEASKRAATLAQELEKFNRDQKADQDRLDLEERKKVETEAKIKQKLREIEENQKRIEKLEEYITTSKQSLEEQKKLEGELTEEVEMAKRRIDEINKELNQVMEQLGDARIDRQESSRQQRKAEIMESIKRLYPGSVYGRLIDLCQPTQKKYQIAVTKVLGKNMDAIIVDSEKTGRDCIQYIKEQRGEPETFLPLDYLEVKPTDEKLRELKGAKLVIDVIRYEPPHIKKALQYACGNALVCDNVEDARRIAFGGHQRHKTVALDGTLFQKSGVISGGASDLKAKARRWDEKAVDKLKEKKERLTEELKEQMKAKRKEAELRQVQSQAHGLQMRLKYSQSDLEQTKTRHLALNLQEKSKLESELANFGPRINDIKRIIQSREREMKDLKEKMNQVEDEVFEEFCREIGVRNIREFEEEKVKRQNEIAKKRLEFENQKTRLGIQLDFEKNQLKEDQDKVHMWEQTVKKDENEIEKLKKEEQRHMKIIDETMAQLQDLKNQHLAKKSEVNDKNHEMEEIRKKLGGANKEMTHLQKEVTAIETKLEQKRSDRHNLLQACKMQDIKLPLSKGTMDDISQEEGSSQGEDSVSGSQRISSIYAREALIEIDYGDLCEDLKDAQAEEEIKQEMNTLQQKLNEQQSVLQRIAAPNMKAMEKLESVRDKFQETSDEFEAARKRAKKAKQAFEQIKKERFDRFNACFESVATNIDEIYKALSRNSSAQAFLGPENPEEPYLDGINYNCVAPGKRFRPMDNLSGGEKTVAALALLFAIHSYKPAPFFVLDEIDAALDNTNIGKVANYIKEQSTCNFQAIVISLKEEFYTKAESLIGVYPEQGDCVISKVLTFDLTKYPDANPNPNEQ

[2] = biological target: T1, SMC1A; assay: co-immunoprecipitation: anti-FLAG IP from lysates of HEK293 cells transfected with FLAG-STAG2, Western blot IB:SMC1 (endogenous SMC1)
[3] = biological target: T1, SMC1A; assay: co-immunoprecipitation: anti-FLAG IP from lysates of HEK293 cells transfected with FLAG-STAG2 D193N, Western blot IB:SMC1 (endogenous SMC1)
[4] = biological target: T1, SMC1A; assay: anti-FLAG co-immunoprecipitation from HEK293 lysates, Western blot; weaker than wild type
[5] = biological target: T2, RAD21 (UniProt O60216); assay: anti-FLAG co-immunoprecipitation from HEK293 lysates, Western blot
T2 sequence (looked up): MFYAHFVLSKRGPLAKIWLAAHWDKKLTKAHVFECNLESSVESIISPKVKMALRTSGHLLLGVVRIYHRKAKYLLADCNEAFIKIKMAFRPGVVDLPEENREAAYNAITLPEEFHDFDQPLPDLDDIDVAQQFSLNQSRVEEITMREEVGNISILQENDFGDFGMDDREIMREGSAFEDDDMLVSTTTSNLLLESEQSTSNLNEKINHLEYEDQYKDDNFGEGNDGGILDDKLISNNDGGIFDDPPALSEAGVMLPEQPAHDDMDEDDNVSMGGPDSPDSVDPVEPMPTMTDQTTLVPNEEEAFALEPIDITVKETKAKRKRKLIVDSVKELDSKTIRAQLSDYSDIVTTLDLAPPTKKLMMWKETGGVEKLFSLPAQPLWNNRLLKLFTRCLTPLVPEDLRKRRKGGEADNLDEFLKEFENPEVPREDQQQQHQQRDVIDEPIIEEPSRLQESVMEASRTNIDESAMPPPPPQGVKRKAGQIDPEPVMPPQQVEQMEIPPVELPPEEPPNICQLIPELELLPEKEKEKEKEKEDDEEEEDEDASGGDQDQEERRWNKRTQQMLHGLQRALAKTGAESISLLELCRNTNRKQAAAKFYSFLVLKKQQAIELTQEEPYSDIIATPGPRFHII

[6] = biological target: T2, RAD21; assay: co-immunoprecipitation: anti-FLAG IP from lysates of HEK293 cells transfected with FLAG-STAG3, Western blot IB:RAD21 (endogenous RAD21)

B1: FLAG-tagged wild-type STAG2 (protein, human, UniProt Q8N3U4 1-1231, looked up, not shown: small tags and cut ends)
chain: MIAAPEIPTDFNLLQESETHFSSDTDFEDIEGKNQKQGKGKTCKKGKKGPAEKGKGGNGGGKPPSGPNRMNGHHQQNGVENMMLFEVVKMGKSAMQSVVDDWIESYKHDRDIALLDLINFFIQCSGCKGVVTAEMFRHMQNSEIIRKMTEEFDEDSGDYPLTMAGPQWKKFKSSFCEFIGVLVRQCQYSIIYDEYMMDTVISLLTGLSDSQVRAFRHTSTLAAMKLMTALVNVALNLSINMDNTQRQYEAERNKMIGKRANERLELLLQKRKELQENQDEIENMMNAIFKGVFVHRYRDAIAEIRAICIEEIGIWMKMYSDAFLNDSYLKYVGWTMHDKQGEVRLKCLTALQGLYYNKELNSKLELFTSRFKDRIVSMTLDKEYDVAVQAIKLLTLVLQSSEEVLTAEDCENVYHLVYSAHRPVAVAAGEFLYKKLFSRRDPEEDGMMKRRGRQGPNANLVKTLVFFFLESELHEHAAYLVDSMWDCATELLKDWECMNSLLLEEPLSGEEALTDRQESALIEIMLCTIRQAAECHPPVGRGTGKRVLTAKEKKTQLDDRTKITELFAVALPQLLAKYSVDAEKVTNLLQLPQYFDLEIYTTGRLEKHLDALLRQIRNIVEKHTDTDVLEACSKTYHALCNEEFTIFNRVDISRSQLIDELADKFNRLLEDFLQEGEEPDEDDAYQVLSTLKRITAFHNAHDLSKWDLFACNYKLLKTGIENGDMPEQIVIHALQCTHYVILWQLAKITESSSTKEDLLRLKKQMRVFCQICQHYLTNVNTTVKEQAFTILCDILMIFSHQIMSGGRDMLEPLVYTPDSSLQSELLSFILDHVFIEQDDDNNSADGQQEDEASKIEALHKRRNLLAAFCKLIVYTVVEMNTAADIFKQYMKYYNDYGDIIKETMSKTRQIDKIQCAKTLILSLQQLFNEMIQENGYNFDRSSSTFSGIKELARRFALTFGLDQLKTREAIAMLHKDGIEFAFKEPNPQGESHPPLNLAFLDILSEFSSKLLRQDKRTVYVYLEKFMTFQMSLRREDVWLPLMSYRNSLLAGGDDDTMSVISGISSRGSTVRSKKSKPSTGKRKVVEGMQLSLTEESSSSDSMWLSREQTLHTPVMMQTPQLTSTIMREPKRLRPEDSFMSVYPMQTEHHQTPLDYNRRGTSLMEDDEEPIVEDVMMSSEGRIEDLNEGMDFDTMDIDLPPSKNRRERTELKPDFFDPASIMDESVLGVSMF
- binding [1]: binds
- binding [2]: binds

B2: FLAG-tagged STAG2 Asp193Asn mutant (protein, human, UniProt Q8N3U4 1-1231, looked up, not shown: small tags and cut ends)
chain: MIAAPEIPTDFNLLQESETHFSSDTDFEDIEGKNQKQGKGKTCKKGKKGPAEKGKGGNGGGKPPSGPNRMNGHHQQNGVENMMLFEVVKMGKSAMQSVVDDWIESYKHDRDIALLDLINFFIQCSGCKGVVTAEMFRHMQNSEIIRKMTEEFDEDSGDYPLTMAGPQWKKFKSSFCEFIGVLVRQCQYSIIYNEYMMDTVISLLTGLSDSQVRAFRHTSTLAAMKLMTALVNVALNLSINMDNTQRQYEAERNKMIGKRANERLELLLQKRKELQENQDEIENMMNAIFKGVFVHRYRDAIAEIRAICIEEIGIWMKMYSDAFLNDSYLKYVGWTMHDKQGEVRLKCLTALQGLYYNKELNSKLELFTSRFKDRIVSMTLDKEYDVAVQAIKLLTLVLQSSEEVLTAEDCENVYHLVYSAHRPVAVAAGEFLYKKLFSRRDPEEDGMMKRRGRQGPNANLVKTLVFFFLESELHEHAAYLVDSMWDCATELLKDWECMNSLLLEEPLSGEEALTDRQESALIEIMLCTIRQAAECHPPVGRGTGKRVLTAKEKKTQLDDRTKITELFAVALPQLLAKYSVDAEKVTNLLQLPQYFDLEIYTTGRLEKHLDALLRQIRNIVEKHTDTDVLEACSKTYHALCNEEFTIFNRVDISRSQLIDELADKFNRLLEDFLQEGEEPDEDDAYQVLSTLKRITAFHNAHDLSKWDLFACNYKLLKTGIENGDMPEQIVIHALQCTHYVILWQLAKITESSSTKEDLLRLKKQMRVFCQICQHYLTNVNTTVKEQAFTILCDILMIFSHQIMSGGRDMLEPLVYTPDSSLQSELLSFILDHVFIEQDDDNNSADGQQEDEASKIEALHKRRNLLAAFCKLIVYTVVEMNTAADIFKQYMKYYNDYGDIIKETMSKTRQIDKIQCAKTLILSLQQLFNEMIQENGYNFDRSSSTFSGIKELARRFALTFGLDQLKTREAIAMLHKDGIEFAFKEPNPQGESHPPLNLAFLDILSEFSSKLLRQDKRTVYVYLEKFMTFQMSLRREDVWLPLMSYRNSLLAGGDDDTMSVISGISSRGSTVRSKKSKPSTGKRKVVEGMQLSLTEESSSSDSMWLSREQTLHTPVMMQTPQLTSTIMREPKRLRPEDSFMSVYPMQTEHHQTPLDYNRRGTSLMEDDEEPIVEDVMMSSEGRIEDLNEGMDFDTMDIDLPPSKNRRERTELKPDFFDPASIMDESVLGVSMF
- binding [3]: binds
- binding [4]: binds

B3: FLAG-tagged wild-type STAG3 (protein, human, UniProt Q9UJ98 1-1225, looked up, not shown: small tags and cut ends)
chain: MSSPLQRAVGDTKRALSASSSSSASLPFDDRDSNHTSEGNGDSLLADEDTDFEDSLNRNVKKRAAKRPPKTTPVAKHPKKGSRVVHRHSRKQSEPPANDLFNAVKAAKSDMQSLVDEWLDSYKQDQDAGFLELVNFFIQSCGCKGIVTPEMFKKMSNSEIIQHLTEQFNEDSGDYPLIAPGPSWKKFQGSFCEFVRTLVCQCQYSLLYDGFPMDDLISLLTGLSDSQVRAFRHTSTLAAMKLMTSLVKVALQLSVHQDNNQRQYEAERNKGPGQRAPERLESLLEKRKELQEHQEEIEGMMNALFRGVFVHRYRDVLPEIRAICIEEIGCWMQSYSTSFLTDSYLKYIGWTLHDKHREVRLKCVKALKGLYGNRDLTTRLELFTSRFKDRMVSMVMDREYDVAVEAVRLLILILKNMEGVLTDADCESVYPVVYASHRGLASAAGEFLYWKLFYPECEIRMMGGREQRQSPGAQRTFFQLLLSFFVESELHDHAAYLVDSLWDCAGARLKDWEGLTSLLLEKDQNLGDVQESTLIEILVSSARQASEGHPPVGRVTGRKGLTSKERKTQADDRVKLTEHLIPLLPQLLAKFSADAEKVTPLLQLLSCFDLHIYCTGRLEKHLELFLQQLQEVVVKHAEPAVLEAGAHALYLLCNPEFTFFSRADFARSQLVDLLTDRFQQELEELLQSSFLDEDEVYNLAATLKRLSAFYNTHDLTRWELYEPCCQLLQKAVDTGEVPHQVILPALTLVYFSILWTLTHISKSDASQKQLSSLRDRMVAFCELCQSCLSDVDTEIQEQAFVLLSDLLLIFSPQMIVGGRDFLRPLVFFPEATLQSELASFLMDHVFIQPGDLGSGDSQEDHLQIERLHQRRRLLAGFCKLLLYGVLEMDAASDVFKHYNKFYNDYGDIIKETLTRARQIDRSHCSRILLLSLKQLYTELLQEHGPQGLNELPAFIEMRDLARRFALSFGPQQLQNRDLVVMLHKEGIQFSLSELPPAGSSNQPPNLAFLELLSEFSPRLFHQDKQLLLSYLEKCLQHVSQAPGHPWGPVTTYCHSLSPVENTAETSPQVLPSSKRRRVEGPAKPNREDVSSSQEESLQLNSIPPTPTLTSTAVKSRQPLWGLKEMEEEDGSELDFAQGQPVAGTERSRFLGPQYFQTPHNPSGPGLGNQLMRLSLMEEDEEEELEIQDESNEERQDTDMQASSYSSTSERGLDLLDSTELDIEDF
- binding [5]: binds
- binding [6]: binds
